Measurements published in PubChem BioAssay AID758 (NMMLSC, 2007).
The campaign covered roughly 190,000 compounds. About 110 (0.058%) were called active. This list was built around the results that the source calls inconclusive (neither active nor inactive); the mix of calls is not that of the screen.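 How the source made its calls: active means fluorescent GTP binding to Rab7 beads changed by at least 20 points from the 100% baseline, either direction, mostly lower; inconclusive means compound itself probably fluorescent, or too few beads counted; inactive means the rest.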

These molecules were tested on Rab7 GTPase wild type (dog), Bodipy-FL-GTP binding (assay: modulators of GTP binding to Rab7, primary screen, biochemical, wildtype, multiplex bead flow cytometry (AID 758;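 further: median green fluorescence of bound Bodipy-FL-GTP per Rab7 bead population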)). Conditions: GST-Rab7 beads, fluorescent GTP binding, at 10 µM, actives lie on both sides, untreated = 100%, excess cold GTP = 0%.
With `O=P(O)(O)C(O)C(F)(F)C(F)(F)C(F)(F)C(F)F` (stereo not given) the GTP binding activity (percent of control) was inconclusive: 106%. In the case of `COc1cc(-c2nn3c(-c4ccccn4)nnc3s2)cc(OC)c1OC`, the GTP binding activity (percent of control) is reported as inconclusive: 94%. `COc1cc(NS(=O)(=O)c2ccc(N)cc2)nc(OC)n1` was tested, and the GTP binding activity (percent of control) was inactive: 97%. In the case of `CCN(CC)S(=O)(=O)c1ccc2c(c1)nc(CCC(=O)Nc1ccccc1Cc1ccccc1)n2CC`, the GTP binding activity (percent of control) is reported as inconclusive: 90%. With `ClCC1NCC(c2ccccc2Cl)c2c1[nH]c1ccccc21` (stereo not given) the GTP binding activity (percent of control) was inactive: 111%. With `O=C(NCc1ccccc1)c1cc(S(=O)(=O)N2CCOCC2)ccc1F` the GTP binding activity (percent of control) was inconclusive: 118%. In the case of `Cc1ccc(C(=O)NCC(=O)OCC(=O)Nc2ccccc2C#N)s1`, the GTP binding activity (percent of control) is reported as inactive: 104%. `CCOC(=O)CCCCC(=O)c1[nH]c(=O)[nH]c1CN1CCOCC1` was tested, and the GTP binding activity (percent of control) was inconclusive: 101%. With `O=C(NC1CC1)C1=C[C@@H](c2ccccc2)C[C@@H](OCCCCO)O1` the GTP binding activity (percent of control) was inconclusive: 104%. `NC(CC(=O)O)c1ccc(Br)cc1` (stereo not given) was tested, and the GTP binding activity (percent of control) was inactive: 99%. With `Clc1cnc(N/N=C/c2ccco2)c(Cl)c1` the GTP binding activity (percent of control) was inactive: 100%. `O=c1c2ccccc2c(-c2n[nH]c(=S)o2)nn1Cc1ccccc1` was tested, and the GTP binding activity (percent of control) was inconclusive: 92%. `CCOC(=O)c1sc2nc(C3CC3)cc(-c3ccc(F)cc3)c2c1N` was tested, and the GTP binding activity (percent of control) was inactive: 103%. `O=C(NCc1ccccc1)c1ccc(S(=O)(=O)N2CCCc3ccccc32)cc1` was tested, and the GTP binding activity (percent of control) was inconclusive: 104%. For `CCOC1=NC(C(=O)O)c2ccccc2/C(=C(/C)Cl)N1` (stereo not given), the GTP binding activity (percent of control) was inconclusive: 97%. In the case of `COc1ccc2[nH]cc(CCNS(=O)(=O)c3ccccc3)c2c1`, the GTP binding activity (percent of control) is reported as inactive: 97%. In the case of `COc1ccc(O)c(-c2c(-c3ccc(Cl)cc3)n[nH]c2C)c1`, the GTP binding activity (percent of control) is reported as inconclusive: 97%. For `CCOC(=O)CSc1nc(C)c(C(C)=O)cc1C#N`, the GTP binding activity (percent of control) was inconclusive: 102%. In the case of `COc1ccc(CC(=O)NNC(=O)Cc2ccc(OC)cc2)cc1`, the GTP binding activity (percent of control) is reported as inconclusive: 93%. In the case of `CC(=O)NC1C(=O)N=C(SCC(=O)NC(C)c2ccccc2)NC1=O` (stereo not given), the GTP binding activity (percent of control) is reported as inconclusive: 102%. For `CC(=O)CC(c1ccc([N+](=O)[O-])cc1)c1c(O)c2ccccc2oc1=O` (stereo not given), the GTP binding activity (percent of control) was inactive: 101%. For `CCOc1nonc1C(=N)/C(C(C)=O)=C(\C)O`, the GTP binding activity (percent of control) was inconclusive: 106%. In the case of `O=C(Oc1cccc(-n2cnnn2)c1)c1ccco1`, the GTP binding activity (percent of control) is reported as inconclusive: 94%. In the case of `COC(=O)c1ccc(C2/C(=C(/O)c3ccc(OC(C)C)cc3)C(=O)C(=O)N2c2cc(C)on2)cc1` (stereo not given), the GTP binding activity (percent of control) is reported as inconclusive: 94%. In the case of `Brc1cc2c(cc1/C=N/Nc1nc(N3CCCC3)nc(N3CCOCC3)n1)OCO2`, the GTP binding activity (percent of control) is reported as inconclusive: 92%. With `N#CCC(=O)Nc1ccc(C(=O)NCc2ccccn2)cc1` the GTP binding activity (percent of control) was inactive: 107%. `CCOC(=O)c1cnc2c(-c3ccccc3)cnn2c1N` was tested, and the GTP binding activity (percent of control) was inconclusive: 104%. In the case of `Cc1ccc(Sc2nnc(-c3ccccc3)cc2C#N)cc1`, the GTP binding activity (percent of control) is reported as inconclusive: 310%. `COCCCNS(=O)(=O)c1ccc(SC)cc1` was tested, and the GTP binding activity (percent of control) was inconclusive: 99%. `CSc1ccccc1C(=O)C1CCCN(Cc2cnn(-c3ccccc3)c2)C1` (stereo not given) was tested, and the GTP binding activity (percent of control) was inactive: 96%. With `Cn1c(N)c(C(=O)COC(=O)c2cc(-c3ccco3)nc3ccccc23)c(=O)n(C)c1=O` the GTP binding activity (percent of control) was inconclusive: 90%. For `Cc1ccc(OCC(=O)N/N=C/C=C/c2ccco2)cc1C`, the GTP binding activity (percent of control) was inconclusive: 93%. In the case of `CSc1nc2ccccc2n1Cc1cccc(F)c1`, the GTP binding activity (percent of control) is reported as inconclusive: 95%. In the case of `CN(CC(=O)O)S(=O)(=O)c1ccc2c(c1)NC(=O)CC(=O)N2`, the GTP binding activity (percent of control) is reported as inactive: 104%. For `Cc1c(NS(=O)(=O)c2ccc3c(c2)Cc2ccccc2-3)c(=O)n(-c2ccccc2)n1C`, the GTP binding activity (percent of control) was inactive: 90%. For `O=C(Nc1ccccc1-c1nc2ccccc2[nH]1)c1sc2ccccc2c1Cl`, the GTP binding activity (percent of control) was inactive: 100%. `O=c1c2cc(N3CCOCC3)ccc2[nH]c(=S)n1Cc1ccco1` was tested, and the GTP binding activity (percent of control) was inconclusive: 108%. In the case of `c1ccc(-c2cnn3c(-c4ccccc4)c(-c4ccccc4)nc3n2)cc1`, the GTP binding activity (percent of control) is reported as inconclusive: 122%. With `O=C(Nc1ccc2c(c1)OCO2)C1CCCCN1S(=O)(=O)c1ccc(F)cc1` (stereo not given) the GTP binding activity (percent of control) was inconclusive: 97%. With `O=C(NCc1cccs1)c1cccnc1C(=O)O` the GTP binding activity (percent of control) was inconclusive: 110%. `CCOC(=O)Cc1csc(NC(=O)c2ccc(S(=O)(=O)N3CCCC3)cc2)n1` was tested, and the GTP binding activity (percent of control) was inactive: 101%. In the case of `C/C(=N/OC(=O)c1ccc(C)cc1)c1ccc(N2C(=O)C3CCCCC3C2=O)cc1` (stereo not given), the GTP binding activity (percent of control) is reported as inconclusive: 97%. `COc1ccc(C(=O)O/N=C2\CCCc3nonc32)cc1` was tested, and the GTP binding activity (percent of control) was inconclusive: 108%. `CCc1cccc2c(/C=N/NC(=O)c3cccc(S(=O)(=O)Nc4ccccc4Cl)c3)c[nH]c12` was tested, and the GTP binding activity (percent of control) was inconclusive: 93%. For `COc1ccc(-c2cc(C(F)(F)F)nc(-n3ccnc3C)n2)cc1`, the GTP binding activity (percent of control) was inconclusive: 99%. In the case of `Cc1ccccc1NS(=O)(=O)CCCCC(Cl)(Cl)Cl`, the GTP binding activity (percent of control) is reported as inactive: 96%. For `COc1ccc(C(CC(=O)NCC(OC)OC)NS(=O)(=O)c2ccc(Cl)cc2)cc1` (stereo not given), the GTP binding activity (percent of control) was inconclusive: 98%. In the case of `CC(C(=O)NCCN1CCOCC1)c1ccc([N+](=O)[O-])cc1` (stereo not given), the GTP binding activity (percent of control) is reported as inconclusive: 102%. With `O=C(COC(=O)Cc1ccc(Cl)cc1)Nc1c(F)cccc1F` the GTP binding activity (percent of control) was inactive: 93%. `CC1=NN(c2ccc(S(=O)(=O)O)cc2C)C(=O)C1` was tested, and the GTP binding activity (percent of control) was inconclusive: 95%. For `CCOc1ccc(N(C(=O)CNC(=O)c2ccco2)C(C(=O)NC2CCCC2)c2ccncc2)cc1` (stereo not given), the GTP binding activity (percent of control) was inactive: 97%. In the case of `COc1ccc(CCNC(=O)c2c(N)no[n+]2[O-])cc1OC`, the GTP binding activity (percent of control) is reported as inactive: 106%. In the case of `COc1ccc(N2C(=S)NC3N2C(=S)NC3(C)c2ccccc2)cc1` (stereo not given), the GTP binding activity (percent of control) is reported as inactive: 103%. In the case of `CN(Cc1ccccc1)S(=O)(=O)c1ccccc1[N+](=O)[O-]`, the GTP binding activity (percent of control) is reported as inactive: 105%. For `CCNC(=S)N/N=C(\C)c1ccc2ccccc2c1OC(F)F`, the GTP binding activity (percent of control) was inconclusive: 95%. `O=C1C2CC=CCC2C(=O)N1c1ncn[nH]1` (stereo not given) was tested, and the GTP binding activity (percent of control) was inconclusive: 635%. For `COc1ccc(/C=N/NC(=O)C(=O)NCc2cccnc2)cc1`, the GTP binding activity (percent of control) was inactive: 94%. For `COc1ccc(CNc2oc(COc3ccc(Cl)cc3)nc2C#N)cc1`, the GTP binding activity (percent of control) was inconclusive: 102%. `CCCCN1CN(S(=O)(=O)c2cccs2)c2nc3ccccc3nc21` was tested, and the GTP binding activity (percent of control) was inconclusive: 106%. With `O=C(O)/C=C/c1cn(Cc2ccccc2)nc1-c1ccccc1` the GTP binding activity (percent of control) was inconclusive: 106%.
